Results taken from US20170189504A1, “NOVEL PEPTIDES AND COMBINATION OF PEPTIDES FOR USE IN IMMUNOTHERAPY AGAINST VARIOUS CANCERS” (immatics biotechnologies GmbH, priority 2015, published 2017).

Assays:
[1] = tested on: HLA-A*02; test: Identification and relative LC-MS quantitation of HLA-A*02-presented tumor-associated peptides on tissue samples (presentation profiles, Tables 13A, 13B, 15, FIG. 1); set-up: species or system human; key to Presentation score NHL / Presentation score CLL / Presentation score BRCA / Presentation score AML / Presentation score GB / Presentation score NSCLC / Presentation score GBC_CCC / Presentation score UEC / Presentation score MEL / Presentation score OSCAR / Presentation score GC / Presentation score UBC / Presentation score OC / Presentation score RCC / Presentation score CRC / Presentation score PCA / Presentation score HCC / Presentation score PC / Presentation score SCLC: specifically presented on tumors (++++); very highly over-presented on tumors compared to a panel of normal tissues (+++); highly over-presented on tumors compared to a panel of normal tissues (++); over-presented on tumors compared to a panel of normal tissues (+); conditions: for Presentation score NSCLC: non-small cell lung cancer (N = 90) vs panel of normal tissues (N = 262); for Peptide Presentation on cancer entities: HLA-A*02-binding tumor-associated peptides
[2] = tested on: source genes (mRNA); test: Gene and exon expression of source genes, TCGA tumor samples compared with normal tissue samples (Lonsdale, 2013) (Table 17); set-up: species or system human; conditions: for Over-expression category of source gene (target coverage), BRCA: BRCA = Breast cancer (N = 1104), tumors more than 2-fold above highest 75% percentile of normal tissues; for Over-expression category of source gene (target coverage), DLBC: DLBC = Lymphoid neoplasm diffuse large B-cell lymphoma (N = 48); for Over-expression category of source gene (target coverage), ESCA: ESCA = Esophageal cancer (N = 185); for Over-expression category of source gene (target coverage), LAML: LAML = Acute Myeloid Leukemia (N = 173); for Over-expression category of source gene (target coverage), LUAD: LUAD = Lung adenocarcinoma (N = 517); for Over-expression category of source gene (target coverage), LUSC: LUSC = Lung squamous cell carcinoma (N = 503); for Over-expression category of source gene (target coverage), READ: READ = Colon and rectal adenocarcinoma (N = 167); for Over-expression category of source gene (target coverage), SKCM: SKCM = Skin cutaneous melanoma (N = 473); for Over-expression category of source gene (target coverage), STAD: STAD = Stomach adenocarcinoma (N = 415)
[3] = tested on: source genes (mRNA); test: Expression profiling of source genes by in-house RNASeq of tumor and normal tissues (Table 18, FIG. 2); set-up: species or system human; key: very highly over-expressed in tumors compared to a panel of normal tissues (+++); highly over-expressed in tumors compared to a panel of normal tissues (++); over-expressed in tumors compared to a panel of normal tissues (+); conditions: source gene of peptide; for Expression score CRC: colorectal cancer (N = 20) vs panel of normal tissues; for Expression score OSCAR: esophageal cancer incl. gastric-esophageal junction (N = 11) vs panel of normal tissues; for Expression score GBC_CCC: gallbladder adenocarcinoma and cholangiocarcinoma (N = 3) vs panel of normal tissues; for Expression score GB: glioblastoma (N = 24) vs panel of normal tissues; for Expression score NHL: non-Hodgkin lymphoma (N = 10) vs panel of normal tissues; for Expression score NSCLC: non-small cell lung cancer (N = 11) vs panel of normal tissues; for Expression score OC: ovarian cancer (N = 12) vs panel of normal tissues; for Expression score SCLC: small cell lung cancer (N = 10) vs panel of normal tissues; for Expression score UEC: uterine cancer (N = 10) vs panel of normal tissues
[4] = Table 13A, cancer entities on which the peptide was found presented

230: peptide found in HELLS (gene looked up) (KLQNIMMLL; listed as Homo sapiens) [compound 230]
Presentation score AML ([1]; HLA-A*02 peptides, acute myeloid leukemia (N = 18) vs panel of normal tissues (N = 262)): ++++
Presentation score BRCA ([1]; HLA-A*02 peptides, breast cancer (N = 17) vs panel of normal tissues (N = 262)): ++++
Presentation score CLL ([1]; HLA-A*02 peptides, chronic lymphocytic leukemia (N = 17) vs panel of normal tissues (N = 262)): ++++
Presentation score CRC ([1]; HLA-A*02 peptides, colorectal cancer (N = 28) vs panel of normal tissues (N = 262)): ++++
Presentation score GBC_CCC ([1]; HLA-A*02 peptides, gallbladder adenocarcinoma and cholangiocarcinoma (N = 6) vs panel of normal tissues (N = 262)): ++++
Presentation score HCC ([1]; HLA-A*02 peptides, hepatocellular carcinoma (N = 16) vs panel of normal tissues (N = 262)): ++++
Presentation score NHL ([1]; HLA-A*02 peptides, non-Hodgkin lymphoma (N = 18) vs panel of normal tissues (N = 262)): ++++
Presentation score NSCLC ([1]; HLA-A*02 peptides): ++++
Presentation score RCC ([1]; HLA-A*02 peptides, renal cell carcinoma (N = 20) vs panel of normal tissues (N = 262)): ++++
Presentation score UBC ([1]; HLA-A*02 peptides, urinary bladder cancer (N = 16) vs panel of normal tissues (N = 262)): ++++
Peptide Presentation on cancer entities [1, 4]: NSCLC, HCC, CLL, UBC, BRCA, GBC_CCC, RCC, CRC, AML, NHL
Peptide Presentation on cancer entities ([1]; Table 13B, presentation on additional cancer entities): HNSCC
Over-expression category of source gene (target coverage), BLCA ([2]; BLCA = Bladder urothelial carcinoma (N = 408), same cutoff): B (>= 20% of tumors above the cutoff, but <50%)
Over-expression category of source gene (target coverage), BRCA [2]: B (>= 20% of tumors above the cutoff, but <50%)
Over-expression category of source gene (target coverage), COAD ([2]; COAD = Colon and rectal adenocarcinoma (N = 462), same cutoff): B (>= 20% of tumors above the cutoff, but <50%)
Over-expression category of source gene (target coverage), DLBC ([2]; same cutoff): A (>=50% of tumors above the cutoff)
Over-expression category of source gene (target coverage), ESCA ([2]; same cutoff): A (>=50% of tumors above the cutoff)
Over-expression category of source gene (target coverage), GBM ([2]; GBM = Glioblastoma multiforme (N = 169), same cutoff): C (>=5% of tumors above the cutoff, but <20%)
Over-expression category of source gene (target coverage), LAML ([2]; same cutoff): A (>=50% of tumors above the cutoff)
Over-expression category of source gene (target coverage), LUAD ([2]; same cutoff): C (>=5% of tumors above the cutoff, but <20%)
Over-expression category of source gene (target coverage), LUSC ([2]; same cutoff): B (>= 20% of tumors above the cutoff, but <50%)
Over-expression category of source gene (target coverage), OV ([2]; OV = Ovarian serous cystadenocarcinoma (N = 309), same cutoff): C (>=5% of tumors above the cutoff, but <20%)
Over-expression category of source gene (target coverage), READ ([2]; same cutoff): B (>= 20% of tumors above the cutoff, but <50%)
Over-expression category of source gene (target coverage), SKCM ([2]; same cutoff): C (>=5% of tumors above the cutoff, but <20%)
Over-expression category of source gene (target coverage), STAD ([2]; same cutoff): B (>= 20% of tumors above the cutoff, but <50%)
Over-expression category of source gene (target coverage), UCEC ([2]; UCEC = Uterine corpus endometrial carcinoma (N = 546), same cutoff): B (>= 20% of tumors above the cutoff, but <50%)
Expression score BRCA ([3]; BRCA tumors vs panel of normal tissues): +
Expression score AML ([3]; acute myeloid leukemia (N = 11) vs panel of normal tissues): +
Expression score CRC [3]: +
Expression score OSCAR [3]: ++
Expression score GBC_CCC [3]: +
Expression score GC ([3]; gastric cancer (N = 11) vs panel of normal tissues): +
Expression score GB [3]: +
Expression score NHL [3]: +++
Expression score NSCLC [3]: ++
Expression score OC [3]: ++
Expression score PC ([3]; pancreatic cancer (N = 26) vs panel of normal tissues): +
Expression score RCC ([3]; renal cell carcinoma (N = 10) vs panel of normal tissues): +
Expression score SCLC [3]: +++
Expression score UBC ([3]; urinary bladder cancer (N = 10) vs panel of normal tissues): +
Expression score UEC [3]: ++

137: peptide found in RIF1 (gene looked up) (EIASITEQL; listed as Homo sapiens) [compound 137]
Presentation score GB ([1]; HLA-A*02 peptides, glioblastoma (N = 41) vs panel of normal tissues (N = 262)): +++
Presentation score NSCLC ([1]; HLA-A*02 peptides): +++
Peptide Presentation on cancer entities [1, 4]: GB, NSCLC
Over-expression category of source gene (target coverage), BRCA [2]: B (>= 20% of tumors above the cutoff, but <50%)
Over-expression category of source gene (target coverage), DLBC ([2]; same cutoff): C (>=5% of tumors above the cutoff, but <20%)
Over-expression category of source gene (target coverage), ESCA ([2]; same cutoff): A (>=50% of tumors above the cutoff)
Over-expression category of source gene (target coverage), KIRC ([2]; KIRC = Clear cell kidney carcinoma (N = 534), same cutoff): B (>= 20% of tumors above the cutoff, but <50%)
Over-expression category of source gene (target coverage), KIRP ([2]; KIRP = Papillary kidney carcinoma (N = 291), same cutoff): C (>=5% of tumors above the cutoff, but <20%)
Over-expression category of source gene (target coverage), LAML ([2]; same cutoff): A (>=50% of tumors above the cutoff)
Over-expression category of source gene (target coverage), LGG ([2]; LGG = Lower grade glioma (N = 534), same cutoff): C (>=5% of tumors above the cutoff, but <20%)
Over-expression category of source gene (target coverage), LUAD ([2]; same cutoff): C (>=5% of tumors above the cutoff, but <20%)
Over-expression category of source gene (target coverage), LUSC ([2]; same cutoff): C (>=5% of tumors above the cutoff, but <20%)
Over-expression category of source gene (target coverage), PAAD ([2]; PAAD = Pancreatic ductal adenocarcinoma (N = 179), same cutoff): C (>=5% of tumors above the cutoff, but <20%)
Over-expression category of source gene (target coverage), PRAD ([2]; PRAD = Prostate adenocarcinoma (N = 498), same cutoff): C (>=5% of tumors above the cutoff, but <20%)
Over-expression category of source gene (target coverage), READ ([2]; same cutoff): C (>=5% of tumors above the cutoff, but <20%)
Over-expression category of source gene (target coverage), SKCM ([2]; same cutoff): C (>=5% of tumors above the cutoff, but <20%)
Over-expression category of source gene (target coverage), STAD ([2]; same cutoff): A (>=50% of tumors above the cutoff)
Expression score CRC [3]: +
Expression score OSCAR [3]: +
Expression score GBC_CCC [3]: +
Expression score GB [3]: +
Expression score NHL [3]: +
Expression score NSCLC [3]: +
Expression score OC [3]: +
Expression score SCLC [3]: +
Expression score UEC [3]: +

For some of these results: Expression values are those of the mRNA of the gene that encodes the peptide; a gene is named only where it was looked up.
